Reference: the supplement of paper PMC12823440, “Inhibitors supercharge kinase turnover through native proteolytic circuits” (Nature, 2025)
Counter-ions that a name gives are not always drawn. This is one part of the list. Hit calls seldom repeat between salt and free forms of one compound.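 Kinases were expressed as nanoluciferase fusions in K562 cells and luminescence was read every 4 h between 2 and 18 h as percent of control, DMSO set to 100% and a positive control to 0%. A time point counts as decreased when the signal drops significantly (2 sigma). The hit call is the authors' own, does not follow from the count of time points alone, and its rule is not shown.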

By UniProt entry, the sequences of proteins in these tests, tags left out. Where a name states a change or a piece, a line headed by the entry shows the natural chain unless it says otherwise.
UniProt Q9UQM7, whole entry: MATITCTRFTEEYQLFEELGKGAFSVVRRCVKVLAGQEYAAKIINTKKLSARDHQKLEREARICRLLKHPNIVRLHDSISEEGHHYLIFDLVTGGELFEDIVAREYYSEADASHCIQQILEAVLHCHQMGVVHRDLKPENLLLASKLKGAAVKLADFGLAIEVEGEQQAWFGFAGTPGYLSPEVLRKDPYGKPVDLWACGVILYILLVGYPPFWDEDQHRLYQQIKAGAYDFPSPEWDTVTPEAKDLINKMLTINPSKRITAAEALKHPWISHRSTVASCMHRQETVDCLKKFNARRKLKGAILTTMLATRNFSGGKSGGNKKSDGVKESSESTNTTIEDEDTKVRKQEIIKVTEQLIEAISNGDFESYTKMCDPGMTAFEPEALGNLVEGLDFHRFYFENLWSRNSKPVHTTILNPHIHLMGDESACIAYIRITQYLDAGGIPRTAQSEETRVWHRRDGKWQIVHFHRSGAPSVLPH
UniProt Q13555: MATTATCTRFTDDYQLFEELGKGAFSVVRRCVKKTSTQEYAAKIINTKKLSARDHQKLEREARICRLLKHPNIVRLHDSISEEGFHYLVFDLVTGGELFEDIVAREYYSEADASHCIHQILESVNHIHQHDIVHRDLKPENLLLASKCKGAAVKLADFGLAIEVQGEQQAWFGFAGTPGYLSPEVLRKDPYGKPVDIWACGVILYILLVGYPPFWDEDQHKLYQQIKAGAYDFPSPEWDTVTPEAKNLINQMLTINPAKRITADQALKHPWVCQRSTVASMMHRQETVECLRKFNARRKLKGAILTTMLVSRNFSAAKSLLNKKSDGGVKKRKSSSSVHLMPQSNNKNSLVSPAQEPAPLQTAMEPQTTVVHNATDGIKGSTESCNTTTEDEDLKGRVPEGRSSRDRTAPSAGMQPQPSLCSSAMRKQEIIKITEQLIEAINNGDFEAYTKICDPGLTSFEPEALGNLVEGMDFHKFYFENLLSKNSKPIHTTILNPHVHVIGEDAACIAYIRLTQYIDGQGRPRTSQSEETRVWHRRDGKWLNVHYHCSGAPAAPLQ

These molecules were tested against CAMK2A (UniProt Q9UQM7) (assay: kinase-Nluc reporter destabilization hit call (1 = scored as downregulated) (binary); higher = compound decreases kinase abundance). Conditions: K562; 2-18 h.

kinase-Nluc reporter destabilization hit call, inactive:
COc1cc(C(=O)NC2CCN(C)CC2)ccc1Nc1ncc2c(n1)N(C1CCCC1)CC(F)(F)C(=O)N2C (10 µM) 0
CCN1CCN(c2ccc(Nc3cc(N(C)C(=O)Nc4c(Cl)c(OC)cc(OC)c4Cl)ncn3)cc2)CC1 [Infigratinib] (10 µM) 0
CN1CCN(S(=O)(=O)c2ccc(-c3cnc(N)c(C(=O)Nc4cccnc4)n3)cc2)CC1 (10 µM) 0
Cc1cccc([C@@H](CO)NC(=O)[C@@H](C)N2Cc3ccc(-c4nc(NC5CCOCC5)ncc4Cl)cc3C2=O)c1 [ERK1/2 inhibitor 1] (10 µM) 0
COc1cc(CCc2cc(-c3nc4ccc(N5CCN(C)CC5)cc4[nH]3)n[nH]2)cc(OC)c1 (10 µM) 0
Cc1cc(CS(=O)(=O)c2ccccc2)cc(OCc2ccc(CN3CCC[C@@H]3CO)cc2)c1 [PF-543 (Citrate)] (10 µM) 0
Cc1[nH]c(/C=C2\C(=O)Nc3ccc(S(=O)(=O)Cc4c(Cl)cccc4Cl)cc32)c(C)c1C(=O)N1CCC[C@@H]1CN1CCCC1 (2.5 µM) 0
Cc1cc(F)c(C(=O)Nc2cccc(-c3nncn3C(C)C)n2)cc1-n1cnc(C2CC2)c1 [Selonsertib] (10 µM) 0
COCCOc1cc2nccc(Nc3n[nH]c(C)c3C)c2cc1S(=O)(=O)C(C)(C)C [RIP2 kinase inhibitor 2] (2.5 µM) 0

The molecules below were run against CAMK2G (UniProt Q13555) in the same assay as above. Conditions: K562; 2-18 h.

kinase-Nluc reporter destabilization hit call, inactive:
N#Cc1ccc2[nH]c(O)c(-c3ccc(CN4CCOCC4)cn3)c2c1 (10 µM) 0
O=C1NCCc2[nH]c(-c3ccnc(-c4cnc5ccccc5c4)c3)cc21 (10 µM) 0
Oc1cc(O)cc(/C=C/c2ccc(O)c(O)c2)c1 [Piceatannol] (10 µM) 0
O=C(NOC[C@H](O)CO)c1ccc(F)c(F)c1Nc1ccc(I)cc1F (2.5 µM) 0
Cn1c(=O)n(-c2ccc(C(C)(C)C#N)cc2)c2c3cc(-c4cnc5ccccc5c4)ccc3ncc21 [Dactolisib (Tosylate)] (10 µM) 0
CCCCNc1ncc(-c2ccc(CN3CCOCC3)cn2)c(NC2CCC(O)CC2)n1 (centres undefined) (10 µM) 0
O=C(Nc1cc(C(F)(F)F)ccc1N1CCN(Cc2ccccn2)CC1)c1ccc(-c2ccncc2)o1 (10 µM) 0
CC[C@H](CO)Nc1nc(NCc2ccccc2)c2ncn(C(C)C)c2n1 [Seliciclib] (10 µM) 0
COC(=O)c1ccc2c(C(=Nc3ccc(N(C)C(=O)CN4CCN(C)CC4)cc3)c3ccccc3)c(O)[nH]c2c1 [Nintedanib] (2.5 µM) 0
COc1cc(F)cc([C@@H](CO)NC(=O)[C@@H](C)N2Cc3ccc(-c4nc(NC5CCOCC5)ncc4Cl)cc3C2=O)c1 [ERK1/2 inhibitor 2] (10 µM) 0
CC(C)c1ccc2oc3nc(N)c(C(=O)O)cc3c(=O)c2c1 [Amlexanox] (10 µM) 0
CN(C)C[C@@H]1CCn2cc(c3ccccc32)C2=C(C(=O)NC2=O)c2cn(c3ccccc23)CCO1 [Ruboxistaurin (hydrochloride)] (10 µM) 0
CCc1nc(-c2cccc(C)c2)c(-c2ccnc(NC(=O)c3ccccc3)c2)s1 (10 µM) 0
CCOc1cc2ncc(-c3cc(N)nc(F)c3)n2cc1S(=O)(=O)C(C)(C)C (10 µM) 0
CC(C)(/C=C(\C#N)C(=O)N1CCC[C@@H](n2nc(-c3ccc(Oc4ccccc4)cc3F)c3c(N)ncnc32)C1)N1CCN(C2COC2)CC1 (2.5 µM) 0
CCCn1cnc2c(NCc3ccccc3)nc(NC(CC)CO)nc21 (centres undefined) [Ca2+ channel agonist 1] (2.5 µM) 0
Brc1c(Br)c(Br)c2n[nH]nc2c1Br (10 µM) 0
Nc1nc(OCC2CCCCC2)c2[nH]cnc2n1 (10 µM) 0
COc1ccc(Oc2cc(NCCC(F)(F)F)c3ncc(-c4ccc(C(=O)NC5CC5)c(C)c4)n3n2)c(F)c1F (2.5 µM) 0
COc1cc(C(=O)NC2CCN(C)CC2)c(F)cc1Nc1ncc2c(n1)N(C1CCCC1)CC(F)(F)C(=O)N2C [TAK-960 (dihydrochloride)] (2.5 µM) 0

Copied from above (two entries):
kinase-Nluc reporter destabilization hit call, inactive:
CC[C@H](CO)Nc1nc(NCc2ccccc2)c2ncn(C(C)C)c2n1 [Seliciclib] (10 µM) 0
COC(=O)c1ccc2c(C(=Nc3ccc(N(C)C(=O)CN4CCN(C)CC4)cc3)c3ccccc3)c(O)[nH]c2c1 [Nintedanib] (2.5 µM) 0
